Literature values, collected in patent publication US7361643B2, “Methods for inhibiting angiogenesis” (University of Puerto Rico, priority 2000, dated 2008).
Where two headings read alike, the source gives them in different places. Some of these results come from one statement about several compounds together. At least one compound was matched to its structure with a doubt left. Some compounds share one range, which may span the group rather than tell each member.

System: capillary endothelial cells
Settings: cited from earlier work

Compound	reduction of the cell doubling time (addition to the media)	reduction of the cell doubling time
Nc1ncnc2c1nc(Br)n2[C@@H]1O[C@@H]2COP(=O)(O)O[C@H]2[C@H]1O [8Br-cAMP]	20 to 55 h	–
CCCCC[C@H](O)/C=C/[C@H]1[C@H](O)CC(=O)[C@@H]1CCCCCCC(=O)O [prostaglandin E1]	20 to 55 h	–
cholera toxin	–	20 to 55 h
